According to patent US20240327417A1, “HETEROCYCLIC COMPOUNDS” (BeiGene Switzerland GmbH, priority 2021, published 2024):
The match of structure and compound is tentative.

Sequences of proteins named here, by UniProt entry; tags and fusion partners are left off. Residues count along the entry.
UniProt P23743, whole entry: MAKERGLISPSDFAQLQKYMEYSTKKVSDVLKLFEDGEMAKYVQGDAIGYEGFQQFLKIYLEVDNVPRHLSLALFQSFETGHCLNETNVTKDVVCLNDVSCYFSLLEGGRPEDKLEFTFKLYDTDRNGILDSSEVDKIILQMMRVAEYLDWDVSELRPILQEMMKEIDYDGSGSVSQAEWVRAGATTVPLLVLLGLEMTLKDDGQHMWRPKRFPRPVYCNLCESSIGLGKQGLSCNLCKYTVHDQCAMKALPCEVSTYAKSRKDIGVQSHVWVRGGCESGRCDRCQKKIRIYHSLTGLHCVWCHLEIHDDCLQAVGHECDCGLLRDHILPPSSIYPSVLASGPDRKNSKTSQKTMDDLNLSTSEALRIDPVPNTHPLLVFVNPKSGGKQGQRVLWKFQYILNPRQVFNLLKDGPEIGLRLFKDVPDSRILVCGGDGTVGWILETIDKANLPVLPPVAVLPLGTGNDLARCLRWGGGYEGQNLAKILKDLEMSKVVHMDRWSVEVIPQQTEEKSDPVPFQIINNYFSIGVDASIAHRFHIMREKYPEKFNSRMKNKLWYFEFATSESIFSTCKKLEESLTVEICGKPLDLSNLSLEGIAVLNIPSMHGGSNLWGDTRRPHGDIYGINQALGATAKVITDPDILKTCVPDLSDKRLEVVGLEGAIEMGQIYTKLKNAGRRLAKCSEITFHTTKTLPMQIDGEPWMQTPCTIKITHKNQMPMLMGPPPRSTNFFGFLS
UniProt Q13574, 1-929 isoform 4: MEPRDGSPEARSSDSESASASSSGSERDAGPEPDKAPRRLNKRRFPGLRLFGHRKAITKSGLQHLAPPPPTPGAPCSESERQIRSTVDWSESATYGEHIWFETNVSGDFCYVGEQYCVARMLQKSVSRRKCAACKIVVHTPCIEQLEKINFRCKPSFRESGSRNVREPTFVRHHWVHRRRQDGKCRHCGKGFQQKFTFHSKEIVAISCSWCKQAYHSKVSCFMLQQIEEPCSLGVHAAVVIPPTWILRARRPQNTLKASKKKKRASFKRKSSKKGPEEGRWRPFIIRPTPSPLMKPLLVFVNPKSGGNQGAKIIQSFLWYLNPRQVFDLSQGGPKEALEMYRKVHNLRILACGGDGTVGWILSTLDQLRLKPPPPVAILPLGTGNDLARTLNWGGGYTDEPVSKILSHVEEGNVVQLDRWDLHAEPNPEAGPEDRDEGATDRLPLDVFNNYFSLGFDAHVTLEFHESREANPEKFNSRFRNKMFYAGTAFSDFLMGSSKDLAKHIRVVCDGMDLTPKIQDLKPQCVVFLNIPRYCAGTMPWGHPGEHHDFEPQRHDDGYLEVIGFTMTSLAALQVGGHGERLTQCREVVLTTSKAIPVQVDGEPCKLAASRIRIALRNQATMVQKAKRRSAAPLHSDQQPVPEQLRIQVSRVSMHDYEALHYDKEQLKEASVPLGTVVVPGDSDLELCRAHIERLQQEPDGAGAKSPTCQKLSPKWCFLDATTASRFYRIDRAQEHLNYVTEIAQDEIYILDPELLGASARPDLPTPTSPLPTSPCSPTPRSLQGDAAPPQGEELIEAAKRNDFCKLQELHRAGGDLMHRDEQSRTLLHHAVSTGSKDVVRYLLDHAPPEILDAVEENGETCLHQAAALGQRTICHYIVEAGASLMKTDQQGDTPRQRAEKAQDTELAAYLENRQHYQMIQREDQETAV

Assays:
[1] = target: Full length DGKα (D21-10BG, SignalChem) (Homo sapiens, UniProt P23743); test: Biochemical DGK IC50 assay (ADP-Glo, lipid micelle substrate), DGKα; settings: read-out: IC50s for DGKα, 7.5 nM enzyme, 140 μM ATP, 80 μM DAG, 1 hour preincubation, 1 hour reaction, room temperature
[2] = target: Full length DGKζ (in-house protein M1-V929) (Homo sapiens, UniProt Q13574); test: Biochemical DGK IC50 assay (ADP-Glo, lipid micelle substrate), DGKζ; settings: read-out: IC50s for DGKζ, 0.5 nM enzyme, 140 μM ATP, 80 μM DAG, 1 hour preincubation, 1 hour reaction, room temperature

| Compound | IC50 [1] [µM] | IC50 [2] [µM] |
| --- | --- | --- |
| CC(c1ccc2ncc(C(F)F)nc2c1)N1C[C@H](C)N(c2cc(=O)n(C)n3cc(CC#N)nc23)C[C@H]1C (some centres unmarked) | 2.38 | 0.019 |
| CC[C@H]1CN(C(C)c2ccc3nc(C)sc3c2)[C@H](C)CN1c1cc(=O)n(C)n2cc(CC#N)nc12 (some centres unmarked) | 0.407 | 0.105 |
| CC[C@H]1CN(C(C)c2ccc(C(F)F)cn2)[C@H](CC)CN1c1cc(=O)n(C)n2cc(CC#N)nc12 (single isomer, unassigned) [A78a] | 0.208 | 0.13 |
| CC[C@H]1CN(C(C)c2ccc(C(F)F)cn2)[C@H](CC)CN1c1cc(=O)n(C)n2cc(CC#N)nc12 (single isomer, unassigned) [A78b] | 0.56 | 2.91 |
| CC[C@H]1CN(C(C)c2ccc(C(F)(F)F)cn2)[C@H](CC)CN1c1cc(=O)n(C)n2cc(CC#N)nc12 (single isomer, unassigned) [A79a] | 0.355 | 0.112 |
| CC[C@H]1CN(C(C)c2ccc(C(F)(F)F)cn2)[C@H](CC)CN1c1cc(=O)n(C)n2cc(CC#N)nc12 (single isomer, unassigned) [A79b] | 0.521 | 1.6 |
| CC[C@H]1CN(C(C)c2ccc3nc(C)sc3n2)[C@H](C)CN1c1cc(=O)n(C)n2cc(CC#N)nc12 (single isomer, unassigned) [Compound A121b] | 3.17 | 7.16 |
